Measurements reported in patent US12129475B2, “Glycoalkaloid metabolism enyzymes (GAMES) and uses thereof” (priority 2017, dated 2024).
For part of these data: No dose or concentration is given here for some results.

Legend:
[1] = test system: GAME25-RNAi transgenic tomato lines; assay: SGA levels by LC-MS in GAME25-RNAi (GAME25i) tomato lines compared to wild-type; format: in vivo, Solanum lycopersicum; conditions: for change in level compared to wild-type green fruit / reduction in level compared to wild-type green fruit / increase in level compared to wild-type green fruit: GAME25i green fruit; for level in GAME25i breaker fruit / accumulation compared to wild-type breaker fruit: GAME25i breaker fruit; for reduction in level compared to wild-type leaves / increase in level compared to wild-type leaves: GAME25-RNAi tomato leaves, lines #2, #3, #4
[2] = test system: SlGAME31 downregulated tomato lines; assay: SGA profiling by UPLC-qTOF-MS of red ripe fruit of SlGAME31-RNAi and SlGAME31-Cosup tomato lines; format: in vivo, Solanum lycopersicum; conditions: for increase in level relative to WT plants: SlGAME31-Cosup lines; for increase in level relative to WT plants / increase in level compared to wild-type (WT) plants: skin and flesh of red ripe fruit; for increase in level compared to wild-type (WT) plants / level compared to WT tomato fruit: SlGAME31-RNAi lines; for decrease in level compared to WT tomato fruit: SlGAME31-Cosup lines #7, #5, red ripe fruit; for level compared to WT tomato fruit: red ripe fruit
[3] = test system: GAME25i S. pennellii transgenic lines; assay: SGA levels in leaves of GAME25-silenced S. pennellii; format: in vivo, Solanum pennellii
GAME25-Ox potato plants = assay: SGA levels by LC-MS in GAME25-Ox potato lines; format: in vivo, Solanum tuberosum; conditions: for change in level in leaves: GAME25-Ox potato leaves; for change in level in tuber skin: GAME25-Ox potato tuber skin tissue

tomatidine+4 hexose
change in level compared to wild-type green fruit [1]: complete absence

C[C@H]1CC[C@]2(NC1)O[C@H]1C[C@H]3[C@@H]4CC[C@H]5C[C@@H](O[C@@H]6O[C@H](CO)[C@H](O[C@@H]7O[C@H](CO)[C@@H](O)[C@H](O[C@@H]8OC[C@@H](O)[C@H](O)[C@H]8O)[C@H]7O[C@@H]7O[C@H](CO)[C@@H](O)[C@H](O)[C@H]7O)[C@H](O)[C@H]6O)CC[C@]5(C)[C@H]4CC[C@]3(C)[C@H]1[C@@H]2C [α-tomatine]
increase in level relative to WT plants [2]: 340-520 fold | increase in level compared to wild-type (WT) plants [2]: 2.6-8.4 fold | change in level after GAME25 silencing [3]: reduced | level in GAME25-silenced red ripe fruit ([1]; GAME25-silenced red ripe fruit): not detected | reduction in level compared to wild-type green fruit [1]: 15-25 fold

acetoxy-hydroxytomatine
level in GAME25i breaker fruit [1]: almost non-existent | reduction in level compared to wild-type green fruit [1]: ~50 fold

hydroxy-dehydrotomatine
accumulation compared to wild-type breaker fruit [1]: 20-30 fold | increase in level compared to wild-type green fruit [1]: ~25 fold

C[C@H]1CC[C@H]2[C@@H](C)[C@H]3[C@H](C[C@H]4[C@@H]5CC[C@H]6C[C@@H](O[C@@H]7O[C@H](CO)[C@H](O[C@@H]8O[C@H](CO)[C@@H](O)[C@H](O[C@@H]9OC[C@@H](O)[C@H](O)[C@H]9O)[C@H]8O[C@@H]8O[C@H](CO)[C@@H](O)[C@H](O)[C@H]8O)[C@H](O)[C@H]7O)CC[C@]6(C)[C@H]5CC[C@]34C)N2C1 [demissine]
change in level in leaves (GAME25-Ox potato plants): not detected | change in level in tuber skin (GAME25-Ox potato plants): no accumulation

C[C@@H]1CNC2(O[C@H]3C[C@H]4[C@@H]5CC[C@H]6C[C@@H](O[C@@H]7O[C@H](CO)[C@H](O[C@@H]8O[C@H](CO)[C@@H](O)[C@H](O[C@@H]9OC[C@@H](O)[C@H](O)[C@H]9O)[C@H]8O[C@@H]8O[C@H](CO)[C@@H](O)[C@H](O)[C@H]8O)[C@H](O)[C@H]7O)CC[C@]6(C)[C@H]5CC[C@]4(C)[C@H]3[C@@H]2C)C(O)C1 (stereo partly drawn) [hydroxytomatine]
decrease in level compared to WT tomato fruit [2]: 1.8-6 fold | level compared to WT tomato fruit [2]: remained in similar levels | reduction in level compared to wild-type leaves [1]: 6-10 fold | level in GAME25i breaker fruit [1]: almost non-existent | reduction in level compared to wild-type green fruit [1]: ~100 fold

CC(=O)O[C@H]1C[C@H](CO[C@@H]2O[C@H](CO)[C@@H](O)[C@H](O)[C@H]2O)CN[C@@]12O[C@H]1C[C@H]3[C@@H]4CC[C@H]5C[C@@H](O[C@@H]6O[C@H](CO)[C@H](O[C@@H]7O[C@H](CO)[C@@H](O)[C@H](O[C@@H]8OC[C@@H](O)[C@H](O)[C@H]8O)[C@H]7O[C@H]7O[C@H](CO)[C@@H](O)[C@H](O)[C@H]7O)[C@H](O)[C@H]6O)CC[C@]5(C)[C@H]4CC[C@]3(C)[C@H]1[C@H]2C [esculeoside A]
decrease in level compared to WT tomato fruit [2]: 4-29 fold | level compared to WT tomato fruit [2]: remained in similar levels | level in GAME25i breaker fruit [1]: almost non-existent

C[C@H]1CC[C@@H]2[C@@H](C)[C@H]3[C@H](C[C@H]4[C@@H]5CC=C6C[C@@H](O[C@@H]7O[C@H](CO)[C@H](O)[C@H](O[C@@H]8O[C@H](CO)[C@@H](O)[C@H](O)[C@H]8O)[C@H]7O[C@@H]7O[C@@H](C)[C@H](O)[C@@H](O)[C@H]7O)CC[C@]6(C)[C@H]5CC[C@]34C)N2C1 [α-solanine]
change in level in leaves (GAME25-Ox potato plants): significant reduction | change in level in tuber skin (GAME25-Ox potato plants): no major change

dehydrotomatidine+4 hexose [dehyrotomatidine+4 hexose]
increase in level compared to wild-type leaves [1]: 6-9 fold | increase in level compared to wild-type green fruit [1]: 12-18 fold

dehydrotomatine isomer (1 and 2)
change in level compared to wild-type green fruit [1]: increased significantly

C[C@H]1CC[C@@H]2[C@@H](C)[C@H]3[C@H](C[C@H]4[C@@H]5CC=C6C[C@@H](O[C@@H]7O[C@H](CO)[C@H](O[C@@H]8O[C@@H](C)[C@H](O)[C@@H](O)[C@H]8O)[C@H](O)[C@@H]7O[C@@H]7O[C@@H](C)[C@@H](O)[C@@H](O)[C@H]7O)CC[C@]6(C)[C@H]5CC[C@]34C)N2C1 [α-chaconine]
change in level in leaves (GAME25-Ox potato plants): significant reduction | change in level in tuber skin (GAME25-Ox potato plants): no major change

C[C@H]1CC[C@]2(NC1)O[C@H]1C[C@H]3[C@@H]4CC=C5C[C@@H](O)CC[C@]5(C)[C@H]4CC[C@]3(C)[C@H]1[C@@H]2C [dehydrotomatidine]
change in level compared to wild-type ([1]; GAME25i tomato lines, leaves): No significant accumulation

acetoxy-hydroxy-dehydrotomatine
increase in level compared to wild-type green fruit [1]: 6-8 fold

C[C@H]1CC[C@]2(NC1)O[C@H]1C[C@H]3[C@@H]4CC=C5C[C@@H](O[C@@H]6O[C@H](CO)[C@H](O[C@@H]7O[C@H](CO)[C@@H](O)[C@H](O[C@@H]8OC[C@@H](O)[C@H](O)[C@H]8O)[C@H]7O[C@@H]7O[C@H](CO)[C@@H](O)[C@H](O)[C@H]7O)[C@H](O)[C@H]6O)CC[C@]5(C)[C@H]4CC[C@]3(C)[C@H]1[C@@H]2C [dehydrotomatine]
increase in level relative to WT plants [2]: 105-177 fold | increase in level compared to wild-type (WT) plants [2]: 1.4-4.3 fold | change in level after GAME25 silencing [3]: enriched | increase in level compared to wild-type leaves [1]: 4-6 fold | increase in level compared to wild-type green fruit [1]: 10-12 fold

CC(=O)OC1C[C@H](C)CNC12O[C@H]1C[C@H]3[C@@H]4CC[C@H]5C[C@@H](O[C@@H]6O[C@H](CO)[C@H](O[C@@H]7O[C@H](CO)[C@@H](O)[C@H](O[C@@H]8OC[C@@H](O)[C@H](O)[C@H]8O)[C@H]7O[C@@H]7O[C@H](CO)[C@@H](O)[C@H](O)[C@H]7O)[C@H](O)[C@H]6O)CC[C@]5(C)[C@H]4CC[C@]3(C)[C@H]1[C@@H]2C (stereo partly drawn) [acetoxytomatine]
change in level after GAME25 silencing [3]: reduced | level in GAME25i breaker fruit [1]: almost non-existent | reduction in level compared to wild-type green fruit [1]: ~30 fold

α-tomatine isomer (1 and 2) [α-tomatine isomers (1 and 2)]
reduction in level compared to wild-type leaves [1]: 3-4 fold | change in level compared to wild-type green fruit [1]: drastic reduction

C[C@H]1CC[C@@H]2[C@@H](C)[C@H]3[C@H](C[C@H]4[C@@H]5CC[C@H]6C[C@@H](O)CC[C@]6(C)[C@H]5CC[C@]34C)N2C1 [demissidine]
change in level in leaves (GAME25-Ox potato plants): not detected | change in level in tuber skin (GAME25-Ox potato plants): no accumulation

dehydrotomatine isomer 1
increase in level compared to wild-type leaves [1]: 9-11 fold

acetoxy-dehydrotomatine
change in level after GAME25 silencing [3]: enriched | accumulation compared to wild-type breaker fruit [1]: 7-15 fold | increase in level compared to wild-type green fruit [1]: 12-15 fold
